Reference: PubChem BioAssay AID504764 (Drosophila RNAi Screening Center, 2011)

Purpose: 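Genome-wide screen for regulators of Notch-driven gene expression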 (primary screen)
System: Drosophila Kc167 cells
Reagent: long dsRNA against Drosophila genes
Timing: about 5 days (4 days dsRNA, then 24 h after transfection)
Treatment: transfection of constitutively active membrane-tethered Notch lacking the extracellular domain, read 24 h later
Detection: 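Firefly luciferase from an E(spl)m3 reporter with active Notch, plus control-promoter and uninduced reporter wells for normalisation; unnormalised counts, duplicate wells a and b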
Direction: induced reporter light, run 1, well a and induced reporter light, run 1, well b: higher = more light from the Notch target reporter with active Notch; control promoter light, run 1, well a and control promoter light, run 1, well b: higher = more light from the viral control promoter (cell number, transfection, viability); uninduced reporter light, run 1, well a: higher = more light from the Notch target reporter without active Notch
Rule for the call: 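Hit if the duplicate-averaged log2 ratio of induced to control-promoter light gives a plate-wise z beyond ±2, or induced to uninduced beyond ±1.8; weak-control or discordant-duplicate wells dropped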
Calls: active = modifier hit (raised or lowered Notch signal); inactive = not a hit
In all, the deposit lists about 22,000 reagents; below is an unselected part of those with a known target gene and a result. Of all reagents, 403 (1.9%) were called active. 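Unnormalised raw counts per well; ratio z-scores behind the hit calls and whether each hit raises or lowers signal are not deposited.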 Unmarked entries are inactive. No sequences are given here. Not given: the amount of reagent.

CG17440 [DRSC18126]
- induced reporter light, run 1, well a: 1.20e5
- induced reporter light, run 1, well b: 98515
- control promoter light, run 1, well a: 1.89e5
- control promoter light, run 1, well b: 1.54e5
- uninduced reporter light, run 1, well a: 8060

CG13148 [DRSC06275]
- induced reporter light, run 1, well a: 92080
- induced reporter light, run 1, well b: 95040
- control promoter light, run 1, well a: 1.40e5
- control promoter light, run 1, well b: 1.02e5
- uninduced reporter light, run 1, well a: 6442

CG4301 [DRSC19886]
- induced reporter light, run 1, well a: 49875
- induced reporter light, run 1, well b: 36815
- control promoter light, run 1, well a: 47485
- control promoter light, run 1, well b: 47450
- uninduced reporter light, run 1, well a: 3670

Osi20 [DRSC12568]
- induced reporter light, run 1, well a: 1.07e5
- induced reporter light, run 1, well b: 1.06e5
- control promoter light, run 1, well a: 1.08e5
- control promoter light, run 1, well b: 88480
- uninduced reporter light, run 1, well a: 7905

Brms1 [DRSC19896]
- induced reporter light, run 1, well a: 1.60e5
- induced reporter light, run 1, well b: 1.36e5
- control promoter light, run 1, well a: 2.69e5
- control promoter light, run 1, well b: 1.91e5
- uninduced reporter light, run 1, well a: 9565

CG6337 [DRSC06977]
- induced reporter light, run 1, well a: 99080
- induced reporter light, run 1, well b: 1.09e5
- control promoter light, run 1, well a: 1.43e5
- control promoter light, run 1, well b: 1.34e5
- uninduced reporter light, run 1, well a: 10500

atos [DRSC07318]
- induced reporter light, run 1, well a: 1.06e5
- induced reporter light, run 1, well b: 90960
- control promoter light, run 1, well a: 1.23e5
- control promoter light, run 1, well b: 1.17e5
- uninduced reporter light, run 1, well a: 8765

CanB2 [DRSC07355]
- induced reporter light, run 1, well a: 1.64e5
- induced reporter light, run 1, well b: 2.01e5
- control promoter light, run 1, well a: 2.64e5
- control promoter light, run 1, well b: 3.00e5
- uninduced reporter light, run 1, well a: 14620

d4 [DRSC04881]
- induced reporter light, run 1, well a: 2.36e5
- induced reporter light, run 1, well b: 2.30e5
- control promoter light, run 1, well a: 2.36e5
- control promoter light, run 1, well b: 2.20e5
- uninduced reporter light, run 1, well a: 18610

CG34174 [DRSC00101]
- induced reporter light, run 1, well a: 1.39e5
- induced reporter light, run 1, well b: 1.14e5
- control promoter light, run 1, well a: 1.92e5
- control promoter light, run 1, well b: 2.11e5
- uninduced reporter light, run 1, well a: 11110

Cul1 [DRSC07645]
- induced reporter light, run 1, well a: 1.77e5
- induced reporter light, run 1, well b: 1.41e5
- control promoter light, run 1, well a: 95745
- control promoter light, run 1, well b: 1.16e5
- uninduced reporter light, run 1, well a: 12900

CG32461 [DRSC11594]
- induced reporter light, run 1, well a: 2.86e5
- induced reporter light, run 1, well b: 2.45e5
- control promoter light, run 1, well a: 3.06e5
- control promoter light, run 1, well b: 2.67e5
- uninduced reporter light, run 1, well a: 20765

CG5608 [DRSC15841]
- induced reporter light, run 1, well a: 1.77e5
- induced reporter light, run 1, well b: 1.21e5
- control promoter light, run 1, well a: 90690
- control promoter light, run 1, well b: 1.02e5
- uninduced reporter light, run 1, well a: 10030

CG11151 [DRSC19387]
- induced reporter light, run 1, well a: 48385
- induced reporter light, run 1, well b: 59015
- control promoter light, run 1, well a: 58090
- control promoter light, run 1, well b: 69780
- uninduced reporter light, run 1, well a: 11700

CCT2 [DRSC18415]
- induced reporter light, run 1, well a: 80805
- induced reporter light, run 1, well b: 73140
- control promoter light, run 1, well a: 1.05e5
- control promoter light, run 1, well b: 87215
- uninduced reporter light, run 1, well a: 7082

Dph2 [DRSC16222]
- induced reporter light, run 1, well a: 1.28e5
- induced reporter light, run 1, well b: 1.04e5
- control promoter light, run 1, well a: 75010
- control promoter light, run 1, well b: 67145
- uninduced reporter light, run 1, well a: 9730

SmD2 [DRSC12536]
- induced reporter light, run 1, well a: 65675
- induced reporter light, run 1, well b: 38395
- control promoter light, run 1, well a: 30215
- control promoter light, run 1, well b: 27085
- uninduced reporter light, run 1, well a: 3730

CG31463 [DRSC14346]
- induced reporter light, run 1, well a: 1.13e5
- induced reporter light, run 1, well b: 1.21e5
- control promoter light, run 1, well a: 1.32e5
- control promoter light, run 1, well b: 1.04e5
- uninduced reporter light, run 1, well a: 8895

Look-ups from the list:
Under “control promoter light, run 1, well a”, CG32461 [DRSC11594] has 3.06e5
CG5608 [DRSC15841], uninduced reporter light, run 1, well a = 10030
